We go through one molecule from patent US20260098096A1.

These are yes or no findings as the source states them, for the method shown. Binding can be weak; no strength is given.

Experiment [1] has as its target CCR8_8885 (human CCR8 with extracellular loop 3 of human CCR5) (human). The experiment in a line: epitope mapping on transfected cells.
In experiment [2] the target is CCR8_8588 (human CCR8 with extracellular loop 1 of human CCR5) (human). Put plainly: epitope mapping on transfected cells.

B1: 2H8 anti-m/hCCR8 antibody (mouse hybridoma clone, isotype IgG2b) (antibody, V domains shown)
VH: EVQLQQSGPELVKPGASVKMSCKASGYTFTDYNMHWVKQSHGKSLEWIGYVNPNNGGTSYNQKFKGKATLTVNKSSSTAYMELRSLTSEDSAVYYCARWVLRRNFAYWGQGTLVTVSA
VL: DIVMTQSHKFMSTSVGDRVSITCKASQDVNTAVAWYQQKPGQSPKLLIYWASTRHTGVPDRFTGSGSGTDYTLTISSVQAEDLALYYCQQHYRNPYTFGGGTKLEIK
With B1, the binding entry in experiment [1] and in experiment [2] was “binds” each time.
